Reference: article PMC10477243

By UniProt entry, the sequences of proteins in these tests, tags left out. Residues count along the entry.
UniProt Q14498, 250-328 H258A/F259A/R289A: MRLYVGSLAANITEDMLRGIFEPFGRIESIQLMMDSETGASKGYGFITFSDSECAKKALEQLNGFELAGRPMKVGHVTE
UniProt Q14498, 250-328 Y253A/H258A/F259A/F295A: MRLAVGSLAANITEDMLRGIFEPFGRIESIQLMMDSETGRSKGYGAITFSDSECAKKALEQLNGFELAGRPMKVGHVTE

Experiments:
Experiment in all cases: ITC
[1] = target: RBM39 RRM2 H258A/F259A/R289A (UniProt Q14498); conditions: ITC: RRM2/RRM12 in 10 mM Na phosphate pH 6.8, 50 mM NaCl, 2 mM DTT; RRM1 in the same at pH 5.5; 40 C (RRM12 with ssSL3 at 35 C); recombinant protein
[2] = target: RBM39 mRRM2 Y253A,H258A,F259A,F295A (UniProt Q14498); conditions: ITC: RRM2/RRM12 in 10 mM Na phosphate pH 6.8, 50 mM NaCl, 2 mM DTT; RRM1 in the same at pH 5.5; 40 C (RRM12 with ssSL3 at 35 C); recombinant protein
[3] = target: T1, RBM39 mRRM1.1 F156A,Y198A,R192A (UniProt Q14498); conditions: ITC: RRM2/RRM12 in 10 mM Na phosphate pH 6.8, 50 mM NaCl, 2 mM DTT; RRM1 in the same at pH 5.5; 40 C (RRM12 with ssSL3 at 35 C); recombinant protein; letters put together from the description
T1 sequence (looked up, limits assumed): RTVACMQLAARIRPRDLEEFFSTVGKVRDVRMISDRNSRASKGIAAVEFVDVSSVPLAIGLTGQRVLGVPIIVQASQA

[4] = target: T2, RBM39 mRRM1.2 R188A,R191A,R192A,K194A (UniProt Q14498); conditions: ITC: RRM2/RRM12 in 10 mM Na phosphate pH 6.8, 50 mM NaCl, 2 mM DTT; RRM1 in the same at pH 5.5; 40 C (RRM12 with ssSL3 at 35 C); recombinant protein; letters put together from the description
T2 sequence (looked up, limits assumed): T1 sequence (looked up, limits assumed) with A4F, R36A, R39A, K42A, A46Y

Sequence	Kd [1] [µM]	Kd [2] [µM]	Kd [3] [µM]	Kd [4] [µM]
AGCUUUG	> 100	> 100	–	–
GGGAUUUCCCCAAAUGUGGGAAACUCCC [U1 snRNA SL3]	–	–	> 100	> 100

Substitutions are numbered along the chain they refer to. Construct, isoform or probe ends are uncertain for at least one entry. For some of these results: Protein sequences can lack the tags named with them.
